PubChem BioAssay AID1508597 | Cure First, 2020
Aim: 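Knock-downs altering ovarian cancer cell survival with or without PARP inhibitor rucaparib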 (primary screen). Cells: human ovarian carcinoma lines grown from tumours: OCI-P5x (papillary serous) and OCI-C5x (clear cell). Reagent: siRNA pool against human genes, 1.25 pmol siRNA per well. Timing: 72 h or 96 h, depending on the cell culture. Challenge: rucaparib 20 µM (about IC30) or vehicle, present until read-out. Rucaparib or vehicle: Rucaparib. Cell line: OCI-C5x (clear cell). Read-out: 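ATP luminescence measured at 72 or 96 h according to the culture, then normalised and expressed as percent viability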. Scale: viability, normalised: higher = more viable cells remaining. Hit rule: 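a well counts as a hit if its normalised viability is under 80 percent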. Calls: active = viability under 80%; inactive = viability 80% or more.
Shown is a random part of the about 2,100 reagents, under one of the conditions tested. 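Calls flag viability under 80% in either arm, not effects specific to rucaparib; the reference for percent is not stated.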 No sequences are given here. The record does not give: the 100% reference.

no.	gene	technical replicate	viability, normalised (%)	outcome
1	ITIH4	1	45.7	active
2	ITIH4	2	47.3	active
3	ITIH4	3	37.5	active
4	TRIP13	1	51.3	active
5	TRIP13	2	44.8	active
6	TRIP13	3	61.1	active
7	PAX5	1	30.7	active
8	PAX5	2	32.6	active
9	PAX5	3	23.8	active
10	MUC16	1	61.9	active
11	MUC16	2	77.9	active
12	MUC16	3	47.8	active
13	DGKZ	1	87	inactive
14	DGKZ	2	42.3	active
15	DGKZ	3	71.3	active
16	KDM6A	1	55.6	active
17	KDM6A	2	38.9	active
18	KDM6A	3	55.1	active
19	SETD6	1	26.3	active
20	SETD6	2	24.7	active
21	SETD6	3	28.9	active
22	SLC16A2	1	45.3	active
23	SLC16A2	2	46.6	active
24	SLC16A2	3	40.7	active
25	NR4A2	1	40.8	active
26	NR4A2	2	38.5	active
27	NR4A2	3	28.6	active
28	CAMK4	1	55.2	active
29	CAMK4	2	54.1	active
30	CAMK4	3	60.6	active
31	PIM1	1	48.1	active
32	PIM1	2	58.5	active
33	PIM1	3	39.6	active
34	SMG1	1	58.1	active
35	SMG1	2	66.6	active
36	SMG1	3	52.2	active
37	RPS9	1	46.7	active
38	RPS9	2	51.8	active
39	RPS9	3	54	active
40	ARID4A	1	59.7	active
41	ARID4A	2	59.8	active
42	ARID4A	3	64.1	active
43	PDE1C	1	54.8	active
44	PDE1C	2	48.4	active
45	PDE1C	3	53	active
46	WDR82	1	71.9	active
47	WDR82	2	48	active
48	WDR82	3	45.7	active

The list goes on; the last 6 above are carried over.
no.	gene	technical replicate	viability, normalised (%)	outcome
43	PDE1C	1	54.8	active
44	PDE1C	2	48.4	active
45	PDE1C	3	53	active
46	WDR82	1	71.9	active
47	WDR82	2	48	active
48	WDR82	3	45.7	active
49	ACHE	1	55.2	active
50	ACHE	2	55.6	active
51	ACHE	3	44	active
52	NCOA3	1	61.8	active
53	NCOA3	2	32.2	active
54	NCOA3	3	38.7	active
55	DDX41	1	35.5	active
56	DDX41	2	33	active
57	DDX41	3	21.4	active
58	RPS6KA4	1	58.3	active
59	RPS6KA4	2	77.9	active
60	RPS6KA4	3	56.6	active
61	PALS1	1	56.8	active
62	PALS1	2	56.4	active
63	PALS1	3	74.2	active
64	SRPK2	1	61.1	active
65	SRPK2	2	50.1	active
66	SRPK2	3	54.2	active
67	NOTCH1	1	50.7	active
68	NOTCH1	2	43.4	active
69	NOTCH1	3	41.9	active
70	SNRK	1	59.5	active
71	SNRK	2	63.4	active
72	SNRK	3	56.4	active
73	CERKL	1	40.9	active
74	CERKL	2	25.3	active
75	CERKL	3	31.8	active
